# Assay results published in the supplement of paper PMC10849652.
# Protein sequences, listed by entry. Tags and fused reporters are not part of them. Lines headed by an entry give the natural chain unless they say otherwise; changes in a name come on top.
# UniProt Q9H5K3: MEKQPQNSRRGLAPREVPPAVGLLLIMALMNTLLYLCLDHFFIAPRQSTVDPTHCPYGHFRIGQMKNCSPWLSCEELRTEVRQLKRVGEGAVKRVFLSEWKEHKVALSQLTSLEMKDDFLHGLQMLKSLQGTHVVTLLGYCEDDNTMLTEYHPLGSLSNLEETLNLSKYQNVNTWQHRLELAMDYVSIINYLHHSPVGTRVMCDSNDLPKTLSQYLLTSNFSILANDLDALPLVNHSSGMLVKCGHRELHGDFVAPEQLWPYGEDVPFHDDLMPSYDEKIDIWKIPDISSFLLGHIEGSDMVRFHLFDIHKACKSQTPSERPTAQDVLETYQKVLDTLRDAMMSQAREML
# UniProt Q92871: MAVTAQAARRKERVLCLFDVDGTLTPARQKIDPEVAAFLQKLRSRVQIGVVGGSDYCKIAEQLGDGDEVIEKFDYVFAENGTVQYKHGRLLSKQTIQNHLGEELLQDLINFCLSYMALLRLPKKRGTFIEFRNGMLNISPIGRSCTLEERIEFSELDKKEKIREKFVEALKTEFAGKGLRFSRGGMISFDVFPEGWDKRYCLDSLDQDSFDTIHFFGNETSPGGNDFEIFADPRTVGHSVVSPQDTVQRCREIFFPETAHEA
# UniProt O15162: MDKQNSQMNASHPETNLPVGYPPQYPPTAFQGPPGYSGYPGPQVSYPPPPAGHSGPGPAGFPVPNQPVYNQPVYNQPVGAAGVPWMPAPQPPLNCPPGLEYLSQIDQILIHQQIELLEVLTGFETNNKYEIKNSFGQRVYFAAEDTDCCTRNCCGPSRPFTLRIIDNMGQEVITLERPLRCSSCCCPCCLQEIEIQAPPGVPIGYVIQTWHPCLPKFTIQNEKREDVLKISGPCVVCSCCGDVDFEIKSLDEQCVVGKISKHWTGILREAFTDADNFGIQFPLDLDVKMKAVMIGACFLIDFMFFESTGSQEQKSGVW
# UniProt Q96AD5: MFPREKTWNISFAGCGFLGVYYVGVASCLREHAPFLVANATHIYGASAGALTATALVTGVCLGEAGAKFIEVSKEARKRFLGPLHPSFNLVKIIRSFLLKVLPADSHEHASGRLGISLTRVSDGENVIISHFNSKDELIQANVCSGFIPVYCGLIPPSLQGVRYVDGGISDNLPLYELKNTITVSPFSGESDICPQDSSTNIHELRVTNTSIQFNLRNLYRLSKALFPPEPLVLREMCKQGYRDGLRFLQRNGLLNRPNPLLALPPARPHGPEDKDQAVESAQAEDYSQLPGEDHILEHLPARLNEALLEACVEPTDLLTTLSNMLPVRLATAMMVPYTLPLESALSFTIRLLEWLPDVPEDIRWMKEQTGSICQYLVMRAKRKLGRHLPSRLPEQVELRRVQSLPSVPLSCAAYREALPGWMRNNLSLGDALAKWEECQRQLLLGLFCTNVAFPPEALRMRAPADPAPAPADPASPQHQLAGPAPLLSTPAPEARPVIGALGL
# UniProt P14859: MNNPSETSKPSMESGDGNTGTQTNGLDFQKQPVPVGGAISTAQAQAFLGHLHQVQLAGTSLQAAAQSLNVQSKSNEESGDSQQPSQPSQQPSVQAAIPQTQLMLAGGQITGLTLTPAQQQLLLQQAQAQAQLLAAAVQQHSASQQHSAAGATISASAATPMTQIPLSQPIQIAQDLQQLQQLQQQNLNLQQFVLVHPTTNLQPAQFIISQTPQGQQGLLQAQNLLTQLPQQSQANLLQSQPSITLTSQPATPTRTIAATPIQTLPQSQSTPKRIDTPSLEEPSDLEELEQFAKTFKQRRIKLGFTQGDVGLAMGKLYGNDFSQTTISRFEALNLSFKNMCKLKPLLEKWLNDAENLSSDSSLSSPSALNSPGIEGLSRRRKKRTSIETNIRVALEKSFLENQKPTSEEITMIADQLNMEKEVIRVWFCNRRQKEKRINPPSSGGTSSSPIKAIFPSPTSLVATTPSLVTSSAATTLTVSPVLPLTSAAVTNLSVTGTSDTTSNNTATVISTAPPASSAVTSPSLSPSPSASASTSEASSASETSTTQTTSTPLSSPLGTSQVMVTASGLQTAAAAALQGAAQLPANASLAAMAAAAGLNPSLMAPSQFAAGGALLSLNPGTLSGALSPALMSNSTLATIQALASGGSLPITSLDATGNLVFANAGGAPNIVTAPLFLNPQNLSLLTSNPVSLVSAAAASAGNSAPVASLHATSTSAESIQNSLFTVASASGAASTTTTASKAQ
# UniProt Q99575: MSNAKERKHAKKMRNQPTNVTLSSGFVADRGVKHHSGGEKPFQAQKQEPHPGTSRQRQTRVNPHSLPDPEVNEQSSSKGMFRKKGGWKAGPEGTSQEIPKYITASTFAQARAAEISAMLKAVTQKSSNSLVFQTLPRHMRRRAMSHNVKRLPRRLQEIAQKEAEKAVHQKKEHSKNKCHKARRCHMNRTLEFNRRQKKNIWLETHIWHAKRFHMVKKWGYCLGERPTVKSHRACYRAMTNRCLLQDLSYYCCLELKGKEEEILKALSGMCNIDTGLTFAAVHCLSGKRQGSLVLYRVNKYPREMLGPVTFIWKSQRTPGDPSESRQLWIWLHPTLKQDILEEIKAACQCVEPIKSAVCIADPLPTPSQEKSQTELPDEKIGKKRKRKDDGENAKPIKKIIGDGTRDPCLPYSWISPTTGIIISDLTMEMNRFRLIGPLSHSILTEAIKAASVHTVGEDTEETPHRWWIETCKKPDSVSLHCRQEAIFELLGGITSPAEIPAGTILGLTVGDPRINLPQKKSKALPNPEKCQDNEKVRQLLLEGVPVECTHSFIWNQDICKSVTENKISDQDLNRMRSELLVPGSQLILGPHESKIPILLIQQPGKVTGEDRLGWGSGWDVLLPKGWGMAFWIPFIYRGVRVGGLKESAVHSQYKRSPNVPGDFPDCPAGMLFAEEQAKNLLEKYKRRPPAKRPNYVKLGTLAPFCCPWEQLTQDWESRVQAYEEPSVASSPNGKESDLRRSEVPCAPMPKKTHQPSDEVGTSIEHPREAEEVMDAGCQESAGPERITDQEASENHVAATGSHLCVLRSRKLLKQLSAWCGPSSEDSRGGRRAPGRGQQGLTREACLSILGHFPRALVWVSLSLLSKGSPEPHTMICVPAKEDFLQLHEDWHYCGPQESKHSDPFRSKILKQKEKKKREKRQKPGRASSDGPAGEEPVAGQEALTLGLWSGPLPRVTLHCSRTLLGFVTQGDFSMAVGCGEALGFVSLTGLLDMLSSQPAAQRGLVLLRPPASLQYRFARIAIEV
# UniProt Q9Y244: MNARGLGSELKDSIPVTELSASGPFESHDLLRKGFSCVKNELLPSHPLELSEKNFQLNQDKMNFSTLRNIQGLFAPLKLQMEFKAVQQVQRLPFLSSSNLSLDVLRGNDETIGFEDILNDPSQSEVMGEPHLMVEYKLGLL
# UniProt Q10713: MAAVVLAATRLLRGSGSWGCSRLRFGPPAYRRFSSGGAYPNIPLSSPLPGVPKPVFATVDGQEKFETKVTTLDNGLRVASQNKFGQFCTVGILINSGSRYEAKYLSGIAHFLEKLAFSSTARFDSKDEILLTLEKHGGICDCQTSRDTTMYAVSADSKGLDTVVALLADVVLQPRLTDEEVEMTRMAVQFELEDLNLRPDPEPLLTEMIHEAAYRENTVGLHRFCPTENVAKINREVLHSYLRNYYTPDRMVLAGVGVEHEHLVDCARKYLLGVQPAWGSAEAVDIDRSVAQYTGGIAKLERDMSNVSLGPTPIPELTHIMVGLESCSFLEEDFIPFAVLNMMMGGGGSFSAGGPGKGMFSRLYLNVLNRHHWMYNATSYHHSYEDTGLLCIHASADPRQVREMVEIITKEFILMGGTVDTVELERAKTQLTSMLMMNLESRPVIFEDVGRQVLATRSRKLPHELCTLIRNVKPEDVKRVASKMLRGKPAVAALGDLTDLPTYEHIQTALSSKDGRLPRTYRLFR
# UniProt O95602, whole entry, looked up: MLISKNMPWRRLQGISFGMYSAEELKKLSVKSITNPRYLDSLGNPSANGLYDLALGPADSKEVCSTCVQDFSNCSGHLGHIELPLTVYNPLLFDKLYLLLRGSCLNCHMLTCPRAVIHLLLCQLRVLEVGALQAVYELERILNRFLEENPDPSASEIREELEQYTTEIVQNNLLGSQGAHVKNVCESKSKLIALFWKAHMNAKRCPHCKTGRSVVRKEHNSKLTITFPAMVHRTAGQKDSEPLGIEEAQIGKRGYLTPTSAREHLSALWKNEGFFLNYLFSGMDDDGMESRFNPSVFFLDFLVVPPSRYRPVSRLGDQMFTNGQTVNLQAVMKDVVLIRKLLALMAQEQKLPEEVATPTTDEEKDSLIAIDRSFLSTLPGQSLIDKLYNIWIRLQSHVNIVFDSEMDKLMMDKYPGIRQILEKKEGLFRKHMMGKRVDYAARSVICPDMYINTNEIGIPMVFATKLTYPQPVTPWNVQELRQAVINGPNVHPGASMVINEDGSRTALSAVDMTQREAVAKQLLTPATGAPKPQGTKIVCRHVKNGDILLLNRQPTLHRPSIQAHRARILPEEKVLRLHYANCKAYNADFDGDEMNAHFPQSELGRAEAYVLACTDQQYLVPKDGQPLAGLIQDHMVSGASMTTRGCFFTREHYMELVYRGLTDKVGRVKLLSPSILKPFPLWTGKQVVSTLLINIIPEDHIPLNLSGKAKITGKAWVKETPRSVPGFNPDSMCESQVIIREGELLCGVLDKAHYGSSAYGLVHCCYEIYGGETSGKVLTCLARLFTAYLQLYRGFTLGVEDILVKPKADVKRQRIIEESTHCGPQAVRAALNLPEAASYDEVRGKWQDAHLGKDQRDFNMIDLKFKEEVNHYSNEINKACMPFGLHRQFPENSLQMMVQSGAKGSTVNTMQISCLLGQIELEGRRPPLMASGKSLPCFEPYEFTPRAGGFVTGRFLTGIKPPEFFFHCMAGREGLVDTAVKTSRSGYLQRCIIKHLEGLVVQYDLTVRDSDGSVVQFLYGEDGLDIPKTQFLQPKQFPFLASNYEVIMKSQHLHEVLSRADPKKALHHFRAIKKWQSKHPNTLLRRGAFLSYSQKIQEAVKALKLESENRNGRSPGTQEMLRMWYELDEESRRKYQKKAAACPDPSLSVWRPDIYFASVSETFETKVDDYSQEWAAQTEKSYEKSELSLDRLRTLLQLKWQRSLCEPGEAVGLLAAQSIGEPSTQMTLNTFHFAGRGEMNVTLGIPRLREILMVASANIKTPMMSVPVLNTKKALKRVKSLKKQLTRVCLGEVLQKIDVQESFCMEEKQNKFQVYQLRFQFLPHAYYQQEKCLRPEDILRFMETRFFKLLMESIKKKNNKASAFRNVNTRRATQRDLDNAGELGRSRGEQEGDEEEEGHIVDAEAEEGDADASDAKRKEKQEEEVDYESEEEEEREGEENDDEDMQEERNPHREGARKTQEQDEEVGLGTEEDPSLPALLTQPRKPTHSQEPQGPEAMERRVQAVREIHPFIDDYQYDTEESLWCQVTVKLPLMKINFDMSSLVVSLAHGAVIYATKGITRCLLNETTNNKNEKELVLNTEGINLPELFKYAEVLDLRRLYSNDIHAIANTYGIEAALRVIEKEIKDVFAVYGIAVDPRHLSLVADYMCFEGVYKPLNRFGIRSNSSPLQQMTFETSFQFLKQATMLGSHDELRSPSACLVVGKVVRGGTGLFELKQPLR
# UniProt Q8NBL1: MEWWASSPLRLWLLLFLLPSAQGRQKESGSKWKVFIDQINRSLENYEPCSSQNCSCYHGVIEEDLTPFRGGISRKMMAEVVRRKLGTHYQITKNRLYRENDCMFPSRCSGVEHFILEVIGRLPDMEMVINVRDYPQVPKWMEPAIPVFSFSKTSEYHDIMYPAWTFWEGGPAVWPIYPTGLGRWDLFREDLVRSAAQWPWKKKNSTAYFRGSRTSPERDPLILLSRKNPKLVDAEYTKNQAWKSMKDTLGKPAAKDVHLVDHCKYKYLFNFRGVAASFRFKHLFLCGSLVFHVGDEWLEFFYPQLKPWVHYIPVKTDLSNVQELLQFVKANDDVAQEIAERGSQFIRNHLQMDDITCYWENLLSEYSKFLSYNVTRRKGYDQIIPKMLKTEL
# UniProt Q9H2H8: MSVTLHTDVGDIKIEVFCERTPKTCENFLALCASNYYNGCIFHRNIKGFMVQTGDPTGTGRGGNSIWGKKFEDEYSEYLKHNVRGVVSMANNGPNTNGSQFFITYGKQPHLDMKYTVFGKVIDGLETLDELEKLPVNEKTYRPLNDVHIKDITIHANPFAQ
# UniProt Q15165: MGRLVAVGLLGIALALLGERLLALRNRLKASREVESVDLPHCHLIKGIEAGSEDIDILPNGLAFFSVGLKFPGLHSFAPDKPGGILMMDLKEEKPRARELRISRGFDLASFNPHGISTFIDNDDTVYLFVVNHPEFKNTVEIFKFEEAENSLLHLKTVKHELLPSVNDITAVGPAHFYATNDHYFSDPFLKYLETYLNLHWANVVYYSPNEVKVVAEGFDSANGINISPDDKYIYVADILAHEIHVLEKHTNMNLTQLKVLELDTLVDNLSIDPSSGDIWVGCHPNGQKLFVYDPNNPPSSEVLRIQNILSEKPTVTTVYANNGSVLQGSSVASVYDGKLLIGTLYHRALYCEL
# The other results are listed elsewhere or left out. Residues, ends and D or L forms follow the SMILES beside them. *: point of attachment. Cbz = O=C(OCc1ccccc1)*
# Experiments:
# Assay in all cases: log2 fold change, soluble protein after heating vs DMSO (PISA); higher = thermal stabilisation; K562 cells, 10 uM, 30 min; active = over 0.2 and 3.5 SD of the protein, either way, in both replicates (recomputed)
# erlotinib = compound: C#Cc1cccc(Nc2ncnc3cc(OCCOC)c(OCCOC)cc23)c1 [erlotinib]
# Summary of the method: (§1)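 Thermal stability values are relative to control samples and come from duplicates. They are expressed as log2 fold changes. For measurement, K562 cells (2×10^6 cells/mL) received 10 μM compound for 30 min, and aliquots were heated for 3 min over 48°C-58°C, pooled, and extracted at 4°C in PBS with 0.5% NP-40. Soluble protein, the supernatant after 21,000xg for 90 min, was quantified by TMTpro 16plex LC-MS/MS with equalised channel sums.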
# [1] = compound: C/C(=N\NC(=O)C1=CC(=CC=C1)S(=O)(=O)N2CCOCC2)/C3=C(C=CC(=C3)Cl)O
# Summary of the method: as §1
# [2] = compound: C1=CC(=C(C=C1Cl)C2=NC3=NC=CN=C3C(=N2)NC4=CC=NC=C4)F
# Summary of the method: as §1
# [3] = compound: C1=CC(=CC=C1C2=NC3=C(N2)C=C(C=C3)C(=O)N)OC4=CC=C(C=C4)Cl
# Summary of the method: as §1
# [4] = compound: C1=CC2=C(C=CC(=C2)/C=C\3/C(=O)NC(=NCC4=CC=CS4)S3)N=C1
# Summary of the method: as §1
# [5] = compound: C1=CC2=NC=CN=C2C=C1/C=C/3\C(=O)NC(=O)S3
# Summary of the method: as §1
# [6] = compound: C1=CC=C(C=C1)C2=NC(=C(N2)C3=CC=NC=C3)C4=CC(=C(C=C4)Cl)O
# Summary of the method: as §1
# [7] = compound: C1=CC=C2C(=C1)C3=NNC4=CC=CC(=C43)C2=O
# Summary of the method: as §1
# [8] = compound: C1CCN(C1)C(=O)NC2=CC=CC(=C2)NC3=NC=C(C(=N3)NCCC4=CN=CN4)Br
# Summary of the method: as §1
# [9] = compound: C1CN(CCC1(CC2=CC=C(C=C2)Cl)N)C3=NC=NC4=C3C=CN4
# Summary of the method: as §1
# IRAK-1-4 Inhibitor I = compound: C1COCCN1CCN2C3=CC=CC=C3N=C2NC(=O)C4=CC(=CC=C4)[N+](=O)[O-] [IRAK-1-4 Inhibitor I]
# Summary of the method: as §1
# ibrutinib = compound: C=CC(=O)N1CCC[C@@H](n2nc(-c3ccc(Oc4ccccc4)cc3)c3c(N)ncnc32)C1 [ibrutinib]
# Summary of the method: as §1
# [10] = compound: CC(=O)c1cnc2ccc(-c3cc(Cl)c(O)c(Cl)c3)nc2c1N[C@H]1CC[C@H](CN(C)C)CC1
# Summary of the method: as §1
# ralimetinib = compound: CC(C)(C)Cn1c(N)nc2ccc(-c3[nH]c(C(C)(C)C)nc3-c3ccc(F)cc3)nc21 [ralimetinib]
# Summary of the method: as §1
# [11] = compound: CC(C)(O)CC(=O)NCCn1ccc2ncnc(Nc3ccc(Oc4cccc(C(F)(F)F)c4)c(Cl)c3)c21
# Summary of the method: as §1
# [12] = compound: CC(C)C1=C2N=C(C=C(N2N=C1)NCC3=CC=CC=C3)NCCCCCCN
# Summary of the method: as §1
# [13] = compound: CC(C)C[C@@H](C=O)NC(=O)[C@H](CC(C)C)NC(=O)[C@H](CC(C)C)NC(=O)OCc1ccccc1
# Summary of the method: as §1
# pinometostat = compound: CC(C)N(C[C@H]1O[C@@H](n2cnc3c(N)ncnc32)[C@H](O)[C@@H]1O)[C@H]1C[C@@H](CCc2nc3cc(C(C)(C)C)ccc3[nH]2)C1 [pinometostat]
# Summary of the method: as §1
# [14] = compound: CC1=C(C2=C(C=C1)C(=O)C3=CC=CC=C3N2CCCN)C
# Summary of the method: as §1
# [15] = compound: CC1=C(C(CC(=O)N1)C2=CC=C(C=C2)C(F)(F)F)C(=O)NC3=C(C=C4C(=C3)C=NN4)F
# Summary of the method: as §1
Target,log2 fold change (erlotinib),log2 fold change [1],log2 fold change [2],log2 fold change [3],log2 fold change [4],log2 fold change [5],log2 fold change [6],log2 fold change [7],log2 fold change [8],log2 fold change [9],log2 fold change (IRAK-1-4 Inhibitor I),log2 fold change (ibrutinib),log2 fold change [10],log2 fold change (ralimetinib),log2 fold change [11],log2 fold change [12],log2 fold change [13],log2 fold change (pinometostat),log2 fold change [14],log2 fold change [15]
POMK (UniProt Q9H5K3),inactive: -0.091,inactive: -0.007,inactive: 0.019,inactive: 0.005,inactive: -0.01,inactive: 0.071,inactive: 0.005,inactive: -0.019,inactive: 0.006,inactive: 0.005,inactive: 0.046,inactive: -0.036,inactive: -0.042,inactive: 0.032,inactive: -0.024,inactive: -0.23,inactive: 0.027,inactive: 0.094,inactive: 0.042,–
PMM1 (UniProt Q92871),inactive: -0.021,inactive: -0.041,inactive: 0.004,inactive: 0.065,inactive: 0.1,inactive: 0.002,inactive: -0.007,inactive: -0.049,inactive: 0.001,inactive: 0.036,inactive: -0.06,inactive: 0.039,inactive: -0.011,inactive: -0.024,inactive: 0.014,inactive: 0.187,inactive: 0.019,inactive: -0.037,inactive: 0.049,–
PLSCR1 (UniProt O15162),inactive: -0.023,inactive: 0.03,inactive: 0.089,inactive: 0.077,inactive: -0.004,inactive: 0.022,inactive: 0.061,inactive: -0.04,inactive: -0.008,inactive: 0.05,inactive: -0.003,inactive: 0.002,inactive: -0.025,inactive: -0.046,inactive: 0.047,inactive: 0.031,inactive: -0.036,inactive: -0.015,inactive: 0.031,–
PNPLA2 (UniProt Q96AD5),inactive: 0.017,inactive: 0.052,inactive: 0.007,inactive: -0.021,inactive: 0.045,inactive: 0.063,inactive: -0.015,inactive: -0.027,inactive: 0.101,inactive: -0.034,inactive: -0.006,inactive: 0.166,inactive: -0.116,inactive: -0.009,inactive: 0.044,inactive: -0.184,inactive: 0.121,inactive: -0.018,inactive: -0.004,–
POU2F1 isoform 6 (UniProt P14859),inactive: 0.107,inactive: 0.065,inactive: 0.214,inactive: -0.048,inactive: 0.029,inactive: 0.05,inactive: 0.019,inactive: -0.042,inactive: -0.042,inactive: -0.036,inactive: 0.007,inactive: -0.086,inactive: 0.004,inactive: 0.06,inactive: -0.154,inactive: -0.168,inactive: -0.059,inactive: -0.021,inactive: -0.232,inactive: 0.02
POP1 (UniProt Q99575),inactive: -0.01,inactive: 0.028,inactive: -0.015,inactive: 0.029,inactive: -0.011,inactive: 0.022,inactive: 0.017,inactive: -0.016,inactive: 0,inactive: -0.01,inactive: -0.024,inactive: 0,inactive: 0.001,inactive: 0.029,inactive: -0.006,inactive: 0.013,inactive: -0.03,inactive: 0.003,active: -0.271,–
POMP (UniProt Q9Y244),inactive: 0.003,inactive: -0.018,active: 0.373,inactive: 0.015,inactive: -0.073,inactive: 0.086,inactive: -0.018,inactive: 0.003,inactive: 0.061,inactive: -0.034,inactive: 0.029,inactive: -0.002,inactive: -0.002,inactive: -0.022,inactive: -0.033,inactive: 0.009,inactive: -0.002,inactive: -0.023,inactive: -0.053,–
POLR2D (UniProt O15514),inactive: -0.153,inactive: -0.048,inactive: 0.138,inactive: 0.204,inactive: 0.06,inactive: 0.087,inactive: -0.049,inactive: -0.011,inactive: 0.058,inactive: 0.064,inactive: 0.042,inactive: 0.082,active: 0.346,inactive: -0.012,inactive: -0.006,active: 0.374,inactive: -0.009,inactive: -0.026,inactive: 0.26,–
PMPCA (UniProt Q10713),inactive: -0.014,inactive: 0.005,inactive: 0.064,inactive: 0.016,inactive: 0.03,inactive: -0.014,inactive: 0.07,inactive: 0.065,inactive: -0.026,inactive: 0.011,inactive: 0.016,inactive: -0.008,inactive: -0.029,inactive: 0.057,inactive: -0.155,inactive: 0.097,inactive: -0.003,inactive: -0.015,inactive: 0.055,–
POLR2C (UniProt P19387),inactive: 0.05,inactive: 0.037,inactive: -0.006,inactive: -0.051,inactive: -0.038,inactive: -0.053,inactive: 0.172,inactive: 0.001,inactive: 0.117,inactive: 0,inactive: -0.041,inactive: -0.025,inactive: 0.227,inactive: 0.102,inactive: 0.003,inactive: 0.058,inactive: 0.042,inactive: 0.065,inactive: -0.025,–
POLR1A (UniProt O95602),inactive: -0.055,inactive: -0.236,inactive: 0.031,inactive: 0.058,inactive: 0.04,inactive: 0.005,inactive: 0.079,inactive: -0.096,inactive: 0,inactive: 0.125,inactive: 0.06,inactive: 0.06,inactive: 0.022,inactive: 0.153,inactive: -0.022,inactive: -0.091,inactive: 0.005,inactive: 0.07,inactive: -0.14,–
POGLUT1 (UniProt Q8NBL1),inactive: 0.006,inactive: -0.046,inactive: -0.041,inactive: -0.004,inactive: 0.055,inactive: 0.026,inactive: 0.167,inactive: -0.013,inactive: -0.007,inactive: -0.041,inactive: -0.032,inactive: -0.03,inactive: -0.047,inactive: 0.162,inactive: 0.058,inactive: 0.055,inactive: -0.106,inactive: 0.026,inactive: 0.016,–
POLR2K (UniProt P53803),inactive: -0.081,inactive: 0.021,inactive: -0.037,inactive: 0.127,inactive: -0.017,inactive: 0.097,inactive: -0.1,inactive: -0.105,inactive: 0.005,inactive: 0.022,inactive: -0.041,inactive: 0.003,inactive: 0.059,inactive: -0.093,inactive: 0.028,active: 0.429,inactive: 0.093,inactive: -0.092,inactive: 0.027,–
POLR2G (UniProt P62487),inactive: -0.041,inactive: -0.011,inactive: -0.001,inactive: 0.025,inactive: -0.078,inactive: 0.044,inactive: 0.063,inactive: 0.014,inactive: -0.033,inactive: 0.071,inactive: 0.001,inactive: 0.078,active: 0.329,inactive: -0.052,inactive: -0.011,active: 0.371,inactive: 0.012,inactive: -0.044,inactive: 0.268,–
PPIL3 isoform 2 (UniProt Q9H2H8),inactive: -0.023,inactive: 0.047,inactive: 0.084,inactive: -0.026,inactive: -0.086,inactive: -0.013,inactive: -0.147,inactive: 0.116,inactive: 0.07,inactive: -0.085,inactive: 0.029,inactive: 0.039,inactive: -0.021,inactive: 0.036,inactive: -0.073,inactive: -0.017,inactive: -0.006,inactive: 0.007,inactive: -0.011,inactive: -0.123
PON2 (UniProt Q15165),inactive: -0.045,inactive: -0.065,inactive: 0.016,inactive: 0.004,inactive: -0.025,inactive: 0.022,inactive: -0.013,inactive: 0.037,inactive: 0.049,inactive: 0.046,inactive: 0.007,inactive: 0.022,inactive: -0.012,inactive: -0.092,inactive: -0.043,inactive: -0.016,inactive: 0.007,inactive: 0.037,inactive: -0.023,inactive: 0.038

# Part of the list above in a different format.
Target | log2 fold change (erlotinib) | log2 fold change [1] | log2 fold change [2] | log2 fold change [3] | log2 fold change [4] | log2 fold change [5] | log2 fold change [6] | log2 fold change [7] | log2 fold change [8] | log2 fold change [9] | log2 fold change (IRAK-1-4 Inhibitor I) | log2 fold change (ibrutinib) | log2 fold change [10] | log2 fold change (ralimetinib) | log2 fold change [11] | log2 fold change [12] | log2 fold change [13] | log2 fold change (pinometostat) | log2 fold change [14] | log2 fold change [15]
POMK (UniProt Q9H5K3) | inactive: -0.091 | inactive: -0.007 | inactive: 0.019 | inactive: 0.005 | inactive: -0.01 | inactive: 0.071 | inactive: 0.005 | inactive: -0.019 | inactive: 0.006 | inactive: 0.005 | inactive: 0.046 | inactive: -0.036 | inactive: -0.042 | inactive: 0.032 | inactive: -0.024 | inactive: -0.23 | inactive: 0.027 | inactive: 0.094 | inactive: 0.042 | –
PMM1 (UniProt Q92871) | inactive: -0.021 | inactive: -0.041 | inactive: 0.004 | inactive: 0.065 | inactive: 0.1 | inactive: 0.002 | inactive: -0.007 | inactive: -0.049 | inactive: 0.001 | inactive: 0.036 | inactive: -0.06 | inactive: 0.039 | inactive: -0.011 | inactive: -0.024 | inactive: 0.014 | inactive: 0.187 | inactive: 0.019 | inactive: -0.037 | inactive: 0.049 | –
PLSCR1 (UniProt O15162) | inactive: -0.023 | inactive: 0.03 | inactive: 0.089 | inactive: 0.077 | inactive: -0.004 | inactive: 0.022 | inactive: 0.061 | inactive: -0.04 | inactive: -0.008 | inactive: 0.05 | inactive: -0.003 | inactive: 0.002 | inactive: -0.025 | inactive: -0.046 | inactive: 0.047 | inactive: 0.031 | inactive: -0.036 | inactive: -0.015 | inactive: 0.031 | –
